PubChem BioAssay AID1159584 – Peter MacCallum Cancer Centre | 2016
Assay: 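Genes whose loss is lethal only together with E-cadherin loss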 (primary screen). System: human MCF10A breast epithelial cells, parental and CDH1-null. Knock-down reagent: siRNA against human genes. Detection: 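ATP luminescence (CellTiter-Glo) viability per line relative to mean mock wells over all plates, and the ratio of CDH1-null to parental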. Direction: CDH1-null / parental viability ratio: higher = CDH1-null cells survive relatively better than parental.
The whole screen tested about 18,000 reagents; below is a part drawn at random. Not all columns of the deposit are shown. The record does not give: the amount of reagent, the time to read-out.

The opening 2 entries, to show the layout:
| gene knocked down | CDH1-null / parental viability ratio |
| --- | --- |
| CCM2L | 1.06 |
| CCNG2 | 1.02 |

The list itself, from the start:
| gene knocked down | CDH1-null / parental viability ratio |
| --- | --- |
| CCM2L | 1.06 |
| CCNG2 | 1.02 |
| RUFY2 | 1.14 |
| C10orf67 | 1.24 |
| ENTREP3 | 0.87 |
| EXT1 | 1.03 |
| SERPINA11 | 0.9 |
| SERPINA4 | 1.33 |
| PPM1D | 0.98 |
| BAG6 | 1.23 |
| BLID | 1.1 |
| TRADD | 1.43 |
| CHLSN | 1.04 |
| RNF6 | 1.05 |
| LY6G6C | 1.07 |
| NCS1 | 1.07 |
| GARIN6 | 0.86 |
| MARS2 | 1.24 |
| CD2 | 1.32 |
| AARS1 | 0.87 |
| ADPRHL1 | 0.73 |
| ZNF687 | 0.88 |
| POU6F1 | 0.9 |
| TRIM8 | 1.01 |
| PTGIR | 1.17 |
| LINC02875 | 0.94 |
| HMOX1 | 0.93 |
| ANO7 | 1.13 |
